In patent US20130217613A1:
Results are given in words; binding and its absence hold for the method and conditions named. For some of these results: Binding seen in cells or lysates may run through a third protein. Some entries that bind do so weakly or less than the wild type. Sequences can lack the tags named with a protein.

Sequences of proteins named here, by UniProt entry; tags and fusion partners are left off. A change or cut given only in a name is not applied to a line headed by its entry. A line that says so, or that is headed by a name, gives the form on record, which may keep a tag or linker. Residues count along the entry.
UniProt Q9C005: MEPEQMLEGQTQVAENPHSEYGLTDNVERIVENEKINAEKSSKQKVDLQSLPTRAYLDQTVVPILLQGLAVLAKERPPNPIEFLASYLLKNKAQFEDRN
His-tagged human Dpy-30 domain only (Dpy-30 45-99): residues 45-99 of Q9C005
His-Dpy-30 D/D (a.a. #49-99): residues 49-99 of Q9C005

Experiments:
[1] = target: His-tagged human Dpy-30 domain only (Dpy-30 45-99) (human) (UniProt Q9C005); assay: Ni-NTA pulldown with Dpy-30 45-99, GST western blot
[2] = target: His-tagged human Dpy-30 protein (full length) (human) (UniProt Q9C005); assay: Ni-NTA pulldown of co-expressed proteins, GST western blot
[3] = target: His-tagged human Dpy-30 protein (full length) (human) (UniProt Q9C005); assay: Ni-NTA pulldown of co-expressed proteins
[4] = target: His-tagged human Dpy-30 protein (full length) (human) (UniProt Q9C005); assay: Ni-NTA pulldown (discussion of Example 1)
[5] = target: His-tagged human Dpy-30 domain only (Dpy-30 45-99) (human) (UniProt Q9C005); assay: Ni-NTA pulldown of co-expressed proteins, GST western blot
[6] = target: His-tagged human Dpy-30 protein (full length) (human) (UniProt Q9C005); assay: Ni-NTA pulldown, Coomassie gel
[7] = target: His-Dpy-30 D/D (a.a. #49-99) (human) (UniProt Q9C005); assay: Ni-NTA pulldown (discussion of Example 2)
[8] = target: His-tagged human Dpy-30 protein (full length) (human) (UniProt Q9C005); assay: Ni-NTA pulldown; Table 3 token for evidently co-purified with Dpy-30

Measured: binding

PWLKEQAIGYLARGVVARRVVDKLVEDAAAALAANRS (peptide, not shown: a dimerising Fc or GST) [GST-tagged RSP3 280-316]
binds: [1] | [2]

PWLKEQAIGYLARGVVARRVVDKLVEDAA (peptide, not shown: a dimerising Fc or GST) [GST-tagged RSP3 280-308 (contains the Dpy-30-binding amphipathic helix AHD)]
binds: [3] | [4] | [1] | [5] | [2]

PMSDMGWGAVVKHTLADVLYHVETEVDGRRS (peptide, not shown: a dimerising Fc or GST; large carriers; small tags and cut ends) [GST-hAsh2 593-623 E604K variant]
binds: [6] | [7] | [8]
